No constants are given. Whether binding was seen depends on the method and setting. In cells and extracts the contact can be indirect. Some binding calls cover weakened binding; strength is not graded here.
B1: Human transmembrane protein 43 (TMEM43), wild type (protein, UniProt Q9BTV4 1-400)
chain: MAANYSSTSTRREHVKVKTSSQPGFLERLSETSGGMFVGLMAFLLSFYLIFTNEGRALKTATSLAEGLSLVVSPDSIHSVAPENEGRLVHIIGALRTSKLLSDPNYGVHLPAVKLRRHVEMYQWVETEESREYTEDGQVKKETRYSYNTEWRSEIINSKNFDREIGHKNPSAMAVESFMATAPFVQIGRFFLSSGLIDKVDNFKSLSLSKLEDPHVDIIRRGDFFYHSENPKYPEVGDLRVSFSYAGLSGDDPDLGPAHVVTVIARQRGDQLVPFSTKSGDTLLLLHHGDFSAEEVFHRELRSNSMKTWGLRAAGWMAMFMGLNLMTRILYTLVDWFPVFRDLVNIGLKAFAFCVATSLTLLTVAAGWLFYRPLWALLIAGLALVPILVARTRVPAKKLE
B2: TMEM43-p.R372X (domain or fragment, UniProt Q9BTV4 1-371)
chain: MAANYSSTSTRREHVKVKTSSQPGFLERLSETSGGMFVGLMAFLLSFYLIFTNEGRALKTATSLAEGLSLVVSPDSIHSVAPENEGRLVHIIGALRTSKLLSDPNYGVHLPAVKLRRHVEMYQWVETEESREYTEDGQVKKETRYSYNTEWRSEIINSKNFDREIGHKNPSAMAVESFMATAPFVQIGRFFLSSGLIDKVDNFKSLSLSKLEDPHVDIIRRGDFFYHSENPKYPEVGDLRVSFSYAGLSGDDPDLGPAHVVTVIARQRGDQLVPFSTKSGDTLLLLHHGDFSAEEVFHRELRSNSMKTWGLRAAGWMAMFMGLNLMTRILYTLVDWFPVFRDLVNIGLKAFAFCVATSLTLLTVAAGWLFY

Chains of the proteins cited; added tags and fusions are not shown. Lines headed by an entry give the natural chain unless they say otherwise; changes in a name come on top.
UniProt O95452, whole entry: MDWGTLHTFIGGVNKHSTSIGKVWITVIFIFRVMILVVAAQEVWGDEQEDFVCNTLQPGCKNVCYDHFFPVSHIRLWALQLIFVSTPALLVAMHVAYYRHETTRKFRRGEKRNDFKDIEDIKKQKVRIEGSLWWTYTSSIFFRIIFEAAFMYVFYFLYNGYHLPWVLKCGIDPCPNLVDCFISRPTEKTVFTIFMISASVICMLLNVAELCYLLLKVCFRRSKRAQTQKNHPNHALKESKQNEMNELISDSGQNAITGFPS

Molecular target: Connexin 30 (Cx30, GJB6), Cx30-msfGFP (UniProt O95452)
Assay: co-IP

| Binder | binding |
| --- | --- |
| B1 | binds |
| B2 | binds |
